Experiment [1] deals with native full-length GB1a subunit from mouse brain membrane fraction (mouse) (UniProt Q9WV18). The experiment is described as follows: pull-down from mouse brain lysate, immunoblot. In general terms: A western blot detects proteins with antibodies after separation by electrophoresis.
For experiment [2] the target is unchanged. The experiment is described as follows: pull-down from membrane fraction of wild type mouse brains, immunoblot.

Sequences of proteins named here, by UniProt entry; tags and fusion partners are left off. Residues count along the entry.
UniProt Q9WV18, residues 20-960: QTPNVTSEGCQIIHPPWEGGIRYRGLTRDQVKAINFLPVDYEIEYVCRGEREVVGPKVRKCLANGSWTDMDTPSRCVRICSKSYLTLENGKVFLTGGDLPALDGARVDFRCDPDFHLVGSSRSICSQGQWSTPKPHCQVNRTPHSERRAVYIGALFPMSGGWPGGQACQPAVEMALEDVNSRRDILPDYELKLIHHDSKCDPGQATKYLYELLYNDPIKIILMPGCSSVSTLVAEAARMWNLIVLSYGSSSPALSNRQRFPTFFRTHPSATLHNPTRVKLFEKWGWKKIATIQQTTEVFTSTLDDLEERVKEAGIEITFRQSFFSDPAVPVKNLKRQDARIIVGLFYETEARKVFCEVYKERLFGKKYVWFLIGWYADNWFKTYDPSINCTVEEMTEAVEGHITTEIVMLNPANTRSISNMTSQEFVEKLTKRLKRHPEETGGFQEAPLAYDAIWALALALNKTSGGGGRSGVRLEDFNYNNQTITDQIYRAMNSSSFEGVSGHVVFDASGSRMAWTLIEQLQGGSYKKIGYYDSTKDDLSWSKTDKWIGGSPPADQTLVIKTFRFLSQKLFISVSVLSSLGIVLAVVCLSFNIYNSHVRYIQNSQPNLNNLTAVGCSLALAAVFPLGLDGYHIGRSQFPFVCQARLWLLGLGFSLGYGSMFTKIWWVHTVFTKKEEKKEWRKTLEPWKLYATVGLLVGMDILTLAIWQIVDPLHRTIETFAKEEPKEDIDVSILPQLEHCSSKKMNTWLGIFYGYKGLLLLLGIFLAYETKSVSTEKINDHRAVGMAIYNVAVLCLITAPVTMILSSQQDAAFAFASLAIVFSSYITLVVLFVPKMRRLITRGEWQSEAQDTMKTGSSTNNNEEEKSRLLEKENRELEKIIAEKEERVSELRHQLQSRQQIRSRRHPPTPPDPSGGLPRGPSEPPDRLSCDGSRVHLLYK

Results are given in words; binding and its absence hold for the method and conditions named. In cells and extracts the contact can be indirect. Some binding calls cover weakened binding; strength is not graded here.

B1: AJAP-1WT comprising a C-terminal Cys and a PEG2 linker, immobilized on Dynabeads M-270 Epoxy beads (peptide)
peptide: ETEFIAWGPTGDEDC
modifications: PEG2 linker and C-terminal Cys; covalently loaded on Dynabeads M-270 Epoxy beads
Consider B1, for which the binding entry in experiment [1] and in experiment [2] was “binds” in each case.

These data come from US20260193293A1, “PEPTIDES CAPABLE OF INHIBITING PROTEIN-PROTEIN INTERACTIONS AT GABAB1A SUBUNIT AND USES THEREOF” (UNIVERSITY OF COPENHAGEN, priority 2022, published 2026).
